The assay has as its target TAB182 (human (endogenous in TE-10 and KYSE-150)) (UniProt Q9C0C2). The assay is described as follows: affinity purification with mass spectrometry; co-immunoprecipitation of TAB182 from ESCC cells, products on Coomassie-stained SDS-PAGE gel, MS/MS.

Sequences of proteins named here, by UniProt entry; tags and fusion partners are left off.
UniProt Q9C0C2: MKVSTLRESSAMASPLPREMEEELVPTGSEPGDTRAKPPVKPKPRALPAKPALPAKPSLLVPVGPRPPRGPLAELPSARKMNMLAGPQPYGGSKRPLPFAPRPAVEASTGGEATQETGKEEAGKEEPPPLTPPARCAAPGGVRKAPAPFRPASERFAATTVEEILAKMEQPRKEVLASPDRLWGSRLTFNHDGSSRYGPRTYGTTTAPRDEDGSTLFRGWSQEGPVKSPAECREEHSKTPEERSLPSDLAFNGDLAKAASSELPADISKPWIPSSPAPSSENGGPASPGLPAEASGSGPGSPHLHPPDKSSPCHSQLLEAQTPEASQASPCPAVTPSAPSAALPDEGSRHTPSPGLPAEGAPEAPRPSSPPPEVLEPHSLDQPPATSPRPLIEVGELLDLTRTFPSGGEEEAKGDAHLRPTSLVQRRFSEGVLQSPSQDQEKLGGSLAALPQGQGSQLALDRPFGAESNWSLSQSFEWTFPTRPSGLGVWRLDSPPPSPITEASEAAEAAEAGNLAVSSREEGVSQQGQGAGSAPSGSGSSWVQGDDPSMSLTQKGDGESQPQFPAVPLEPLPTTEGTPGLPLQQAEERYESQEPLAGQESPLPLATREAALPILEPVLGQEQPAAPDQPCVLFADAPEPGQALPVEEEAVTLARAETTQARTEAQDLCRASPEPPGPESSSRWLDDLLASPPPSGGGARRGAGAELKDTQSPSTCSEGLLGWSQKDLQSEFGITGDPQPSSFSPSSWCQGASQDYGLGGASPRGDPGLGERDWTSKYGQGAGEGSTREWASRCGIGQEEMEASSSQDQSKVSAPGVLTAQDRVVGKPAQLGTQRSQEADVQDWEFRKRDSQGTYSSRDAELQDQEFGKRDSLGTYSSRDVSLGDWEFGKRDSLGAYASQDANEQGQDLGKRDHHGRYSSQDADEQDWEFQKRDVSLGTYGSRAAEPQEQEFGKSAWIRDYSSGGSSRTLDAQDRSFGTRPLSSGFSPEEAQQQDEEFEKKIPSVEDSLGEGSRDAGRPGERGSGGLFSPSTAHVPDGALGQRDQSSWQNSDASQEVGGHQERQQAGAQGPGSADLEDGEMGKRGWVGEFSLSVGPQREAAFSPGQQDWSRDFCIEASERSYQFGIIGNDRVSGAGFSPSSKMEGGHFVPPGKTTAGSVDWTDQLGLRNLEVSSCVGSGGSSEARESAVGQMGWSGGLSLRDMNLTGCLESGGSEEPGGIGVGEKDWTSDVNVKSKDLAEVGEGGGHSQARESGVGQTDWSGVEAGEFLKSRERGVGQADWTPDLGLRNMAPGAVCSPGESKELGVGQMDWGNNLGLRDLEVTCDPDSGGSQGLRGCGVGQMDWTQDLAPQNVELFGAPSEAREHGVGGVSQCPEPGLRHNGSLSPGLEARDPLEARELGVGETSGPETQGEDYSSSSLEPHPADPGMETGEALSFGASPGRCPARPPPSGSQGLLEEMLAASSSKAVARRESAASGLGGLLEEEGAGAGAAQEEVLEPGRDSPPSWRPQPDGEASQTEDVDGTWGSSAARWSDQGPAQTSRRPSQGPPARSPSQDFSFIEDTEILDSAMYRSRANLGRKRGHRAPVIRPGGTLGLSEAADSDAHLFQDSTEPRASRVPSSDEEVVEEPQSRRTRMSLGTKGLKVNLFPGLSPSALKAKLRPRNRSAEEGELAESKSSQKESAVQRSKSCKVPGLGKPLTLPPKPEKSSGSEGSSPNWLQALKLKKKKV
UniProt P35222: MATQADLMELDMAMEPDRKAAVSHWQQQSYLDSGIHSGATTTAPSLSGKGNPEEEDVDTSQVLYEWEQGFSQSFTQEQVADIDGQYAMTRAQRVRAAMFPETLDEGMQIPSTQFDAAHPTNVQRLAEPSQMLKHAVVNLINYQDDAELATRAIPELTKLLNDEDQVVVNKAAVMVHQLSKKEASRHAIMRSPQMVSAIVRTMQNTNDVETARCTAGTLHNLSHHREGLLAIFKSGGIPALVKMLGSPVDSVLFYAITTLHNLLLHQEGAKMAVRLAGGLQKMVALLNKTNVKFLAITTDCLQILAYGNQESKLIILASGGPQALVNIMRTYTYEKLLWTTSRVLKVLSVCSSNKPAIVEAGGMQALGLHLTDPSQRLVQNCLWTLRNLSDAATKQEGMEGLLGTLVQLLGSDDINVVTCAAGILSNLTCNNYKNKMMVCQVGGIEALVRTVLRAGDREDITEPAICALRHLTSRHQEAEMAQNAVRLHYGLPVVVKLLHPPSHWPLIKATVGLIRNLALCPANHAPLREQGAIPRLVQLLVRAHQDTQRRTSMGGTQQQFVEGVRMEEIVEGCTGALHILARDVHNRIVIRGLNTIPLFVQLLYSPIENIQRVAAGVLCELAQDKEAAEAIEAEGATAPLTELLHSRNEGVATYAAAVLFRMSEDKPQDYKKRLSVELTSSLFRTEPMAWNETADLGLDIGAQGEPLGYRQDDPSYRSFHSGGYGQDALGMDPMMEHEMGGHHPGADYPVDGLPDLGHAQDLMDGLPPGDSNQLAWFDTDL

No constants are given. Whether binding was seen depends on the method and setting. In cells and extracts the contact can be indirect. Here binding means that the protein was enriched with, or labelled near, the bait; the list need not be complete.

Data on one substance can be found in publication PMC9606255.

As for β-catenin (from UniProt P35222 1-781), the binding entry is listed as “binds”.
